Literature values in US12447147B2, “Methods of treating, ameliorating, and/or preventing cancer using pyrvinium compositions” (Thomas Jefferson University, priority 2019, dated 2025).

Settings: oral tablets or suspensions; blood up to 4 days after each dose; cited from earlier work

Cc1cc(/C=C/c2ccc3cc(N(C)C)ccc3[n+]2C)c(C)n1-c1ccccc1 [PP, pyrvinium pamoate]
absorption indicated by plasma specimens: no indication of any absorption
